# Data taken from paper PMC7862700.
# Protein sequences, listed by entry. Tags and fused reporters are not part of them. Lines headed by an entry give the natural chain unless they say otherwise; changes in a name come on top.
# UniProt Q9Y603: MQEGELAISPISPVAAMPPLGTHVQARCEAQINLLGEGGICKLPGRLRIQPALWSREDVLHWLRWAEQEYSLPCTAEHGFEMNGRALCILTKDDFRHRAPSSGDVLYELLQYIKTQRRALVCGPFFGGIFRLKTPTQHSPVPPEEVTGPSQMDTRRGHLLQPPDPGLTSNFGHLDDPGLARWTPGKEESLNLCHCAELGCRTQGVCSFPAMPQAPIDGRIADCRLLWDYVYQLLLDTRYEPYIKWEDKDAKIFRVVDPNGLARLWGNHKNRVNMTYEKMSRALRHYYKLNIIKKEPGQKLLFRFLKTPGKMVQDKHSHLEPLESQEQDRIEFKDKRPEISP
# UniProt P41212: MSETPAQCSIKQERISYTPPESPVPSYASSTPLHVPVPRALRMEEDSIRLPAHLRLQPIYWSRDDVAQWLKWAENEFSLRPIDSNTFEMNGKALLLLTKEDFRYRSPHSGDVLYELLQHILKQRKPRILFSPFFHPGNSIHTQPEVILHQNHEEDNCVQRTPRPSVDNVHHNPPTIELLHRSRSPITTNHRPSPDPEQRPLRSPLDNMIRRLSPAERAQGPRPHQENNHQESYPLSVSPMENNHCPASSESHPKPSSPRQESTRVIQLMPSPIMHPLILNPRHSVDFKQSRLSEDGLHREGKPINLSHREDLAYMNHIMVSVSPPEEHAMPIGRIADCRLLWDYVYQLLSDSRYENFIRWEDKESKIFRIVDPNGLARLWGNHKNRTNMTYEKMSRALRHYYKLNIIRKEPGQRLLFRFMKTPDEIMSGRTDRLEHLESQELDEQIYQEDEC
# Only a part is listed here, and it is no random draw. At the low end of the ranking the order means little.
# Target: T1, ELF3 (UniProt P78545)
# T1 sequence: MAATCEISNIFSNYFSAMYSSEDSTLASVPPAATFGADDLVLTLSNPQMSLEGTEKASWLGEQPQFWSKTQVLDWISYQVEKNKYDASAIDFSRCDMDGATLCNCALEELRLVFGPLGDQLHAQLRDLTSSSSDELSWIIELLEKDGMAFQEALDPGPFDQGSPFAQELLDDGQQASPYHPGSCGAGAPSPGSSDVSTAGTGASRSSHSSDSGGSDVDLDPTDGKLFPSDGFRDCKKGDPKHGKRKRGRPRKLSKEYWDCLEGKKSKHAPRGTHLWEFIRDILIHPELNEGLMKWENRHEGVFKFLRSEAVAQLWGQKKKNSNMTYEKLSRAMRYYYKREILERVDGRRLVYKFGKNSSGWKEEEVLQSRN
# Assay: DAPPL (digital affinity profiling via proximity ligation, sequencing)
# Conditions: 10 mM Tris-HCl pH 7.5, 50 mM NaCl, 1 mM DTT, 4% glycerol, room temperature, 30 min; GST-TFs on glutathione beads, 16-mer random dsDNA library, 0.1% …; high values mean tight binding; double strand, one strand shown; scale: fold enrichment (6-mer frequency, TF over GST control)
row,Sequence,binding signal
1,TGGGTC,0.679
2,AGGAGG,0.204
3,AGGCAA,0.82
4,CGTGAT,0.475
5,GGCGGC,0.565
6,GAACGC,0.867
7,AGTCAA,0.673
8,GGGACA,0.593
9,GGGGGA,0.564
10,CCAGCG,0.502
11,GCAGCG,0.642
12,TCCGTG,0.43
13,CGGAAT,0.961
14,GCAGTC,0.378
15,CGTGCC,0.72
16,AGATAG,0.872
17,CAGTCA,0.474
18,GACAGC,0.86
19,GGCGCA,0.551
20,AGTTGT,0.683

row,Sequence,binding signal
1,CGGGAT,0.596
2,TGGACG,0.629
3,AGACCA,0.606
4,CAGTGC,0.787
5,TCGGAG,0.181
6,ACGTGA,0.248
7,CAGTGA,0.336
8,GAGGAT,0.583
9,CCCGAG,0.949
10,AGACAA,0.755
11,ACCGCG,0.831
12,GGTACC,0.894
13,GGGTTG,0.805
14,AACCGT,0.487
15,GAAGAG,0.892
16,GTGGCG,0.834
17,GGGGAA,0.712
18,AGAGAC,0.472
19,TGTGAA,0.774

# Target: ETV7 (UniProt Q9Y603)
# Assay: as above
# Conditions: 10 mM Tris-HCl pH 7.5, 50 mM NaCl, 1 mM DTT, 4% glycerol, room temperature, 30 min; GST-TFs on glutathione beads, 16-mer random dsDNA library, 0.1% …; high values mean tight binding; double strand, one strand shown; scale: fold enrichment (6-mer frequency, TF over GST control)
row,Sequence,binding signal
1,TGGGTC,0.766
2,AGGAGG,0.283
3,AGGCAA,0.819
4,CGTGAT,0.473
5,GGCGGC,0.654
6,GAACGC,0.761
7,AGTCAA,0.648
8,GGGACA,0.649
9,GGGGGA,0.531
10,CCAGCG,0.714
11,GCAGCG,0.912
12,TCCGTG,0.513
13,CGGAAT,0.876
14,GCAGTC,0.503
15,CGTGCC,0.861
16,AGATAG,0.921
17,CAGTCA,0.576
18,GACAGC,0.859
19,GGCGCA,0.673
20,AGTTGT,0.863

row,Sequence,binding signal
1,CGGGAT,0.649
2,TGGACG,0.708
3,AGACCA,0.599
4,CAGTGC,0.805
5,TCGGAG,0.259
6,ACGTGA,0.292
7,CAGTGA,0.389
8,GAGGAT,0.646
9,CCCGAG,0.794
10,AGACAA,0.849
11,ACCGCG,0.733
12,GGTACC,0.768
13,GGGTTG,0.875
14,AACCGT,0.502
15,GAAGAG,0.92
16,GTGGCG,0.82
17,GGGGAA,0.743
18,AGAGAC,0.558
19,TGTGAA,0.866

# Target: ETV6 (UniProt P41212)
# Assay: as above
# Conditions: 10 mM Tris-HCl pH 7.5, 50 mM NaCl, 1 mM DTT, 4% glycerol, room temperature, 30 min; GST-TFs on glutathione beads, 16-mer random dsDNA library, 0.1% …; high values mean tight binding; double strand, one strand shown; scale: fold enrichment (6-mer frequency, TF over GST control)
row,Sequence,binding signal
1,TGGGTC,0.654
2,AGGAGG,0.227
3,AGGCAA,0.717
4,CGTGAT,0.444
5,GGCGGC,0.623
6,GAACGC,0.764
7,AGTCAA,0.627
8,GGGACA,0.617
9,GGGGGA,0.596
10,CCAGCG,0.609
11,GCAGCG,0.801
12,TCCGTG,0.499
13,CGGAAT,1.01
14,GCAGTC,0.439
15,CGTGCC,0.764
16,AGATAG,0.744
17,CAGTCA,0.492
18,GACAGC,0.758
19,GGCGCA,0.601
20,AGTTGT,0.842

row,Sequence,binding signal
1,CGGGAT,0.625
2,TGGACG,0.75
3,AGACCA,0.561
4,CAGTGC,0.78
5,TCGGAG,0.181
6,ACGTGA,0.273
7,CAGTGA,0.351
8,GAGGAT,0.566
9,CCCGAG,0.792
10,AGACAA,0.79
11,ACCGCG,0.825
12,GGTACC,0.716
13,GGGTTG,0.788
14,AACCGT,0.525
15,GAAGAG,0.928
16,GTGGCG,0.846
17,GGGGAA,0.821
18,AGAGAC,0.505
19,TGTGAA,0.769
